These results are taken from patent US9061984B2 (University of Louisville Research Foundation, Inc., priority 2008, dated 2015).

The test system of series [1] is axenic amastigotes of L. amazonensis (strain MHOM/BR/76/LTB-012). Put plainly: microbe, parasite or virus in culture. Particulars: Leishmania amazonensis, read-out: IC50 Cytotoxicity Against Amastigotes.
Series [2] can be described thus: Toxicity to peritoneal macrophages (Trypan Blue count). Type of series: cell-based. Particulars: BALB/C, mouse; Table 8b; read-out: Cytotoxicity Macrophages IC50. The method, then:
Peritoneal macrophages were prepared as follows. Non-inflammatory macrophages (10^6) were collected from each BALB/C mouse. The cells adhered at 37° C. after 2 h under 5% CO2 in a CO2 incubator. The plates were then rinsed two to three times with 0.5 mL of RPMI+buffer MOPS without fetal calf serum to eliminate non-adhering cells. The supernatant on the plates was replaced by fresh medium (RPMI+glutamine+FCS+antibiotics), 0.5 mL of medium per well. To determine the toxicity of the compounds to macrophages, dilutions of compounds were added on a part of the macrophages prepared above. […] The medium was then removed and 1 μL of sterile Trypan Blue was added. Cover glasses N° 1 were left where cells were plated and then the number of macrophages in a microscope was determined with a haemocytometer. All experiments were performed in triplicate.

The structures appear in SMILES notation.

Broadly, the IC50 is the concentration at which inhibition is half-maximal. For the compound `COc1cc(/C=N\Nc2ncnc3sc4c(c23)CCCC4)ccc1O` [II-15], the IC50 in series [1] is 31.4 µM. Also, the IC50 at 48 h in series [2] came to 8.5 µM.
